# Measured values published in PubChem BioAssay AID2685 (National Center for Advancing Translational Sciences (NCATS), 2010).
# The list shows a part of the results. Shown are side measurements of this screen, not its main read-out; they come without a call. The list favours compounds with an active or inconclusive main result. Potencies come from curve fits of mixed quality, noted in brackets. Where a SMILES comes first, the peptide text is derived from it. The star is where a group is joined. Cbz = O=C(OCc1ccccc1)*
# Test: qHTS Assay for Lipid Storage Modulators in Drosophila S3 Cells;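 for cell number change: cells counted by Cell Tracker Red CMTPX staining in the red channel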
# Conditions: BODIPY lipid droplet fluorescence, 18-24 h; for cell number change: measured here: cell count max response, cells fed with added oleic acid
# Procedure, shortened: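 Laser-scanning cytometry quantifies lipid droplet accumulation (500–530 nm total intensity; droplet/cell object ratio) in oleic acid-fed (400 uM added) Drosophila S3 cells treated with a concentration series. 20 uM Triacsin C defined 100% inhibition.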
# [1] = measured here: cell number channel AC50, cells fed with added oleic acid
# [2] = measured here: lipid fluorescence (Fed channel) AC50, cells fed with added oleic acid
SMILES,cell number change,AC50 [1],AC50 [2]
O=C(/C=C/c1ccc([N+](=O)[O-])cc1)c1cccnc1,-53.1%,"23.1 µM [falling, single point]","2.31 µM [falling, full curve]"
COc1ccc(OC)c(C2C(C(=O)Nc3ccc(F)cc3)=C(C)Nc3nc(CCCO)nn32)c1 (centres undefined),57.6%,"11.6 µM [rising, partial curve]",
N/C(=N\OC(=O)Oc1ccccc1)c1cccc([N+](=O)[O-])c1,22.1%,,"6.51 µM [falling, single point]"
CCN1CCN(C(=O)Cn2ncc3ccsc3c2=O)CC1,-36.1%,"1.46 µM [falling, full curve]","1.3 µM [falling, full curve]"
Cc1ccc(S(=O)(=O)N2CCC(C(=O)Nc3ccc4c(c3)COC4=O)CC2)cc1,-7.71%,,"0.00461 µM [rising, full curve, poor fit]"
COc1ccc(-c2cc(-c3ccccc3)c(C#N)c(SCC(=O)Nc3ncc(C)s3)n2)cc1,-3.84%,"0.0651 µM [rising, full curve, poor fit]",
CCOC(=O)/C=C/C(=O)Nc1ccc(S(=O)(=O)Nc2cc(C)on2)cc1,221%,,
O=C(NC(=O)N1CCCc2ccccc21)c1ccccc1,13.2%,,"0.184 µM [falling, full curve, poor fit]"
O=C(CSc1nnc(-c2ccoc2)o1)N1CCOCC1,9.75%,"3.66 µM [rising, partial curve]","6.51 µM [rising, single point]"
Cc1ccc(C(=O)N2CCCC(N3CCN(c4cccc(C(F)(F)F)c4)CC3)C2)s1 (centres undefined),-12.8%,,"2.31 µM [rising, partial curve, poor fit]"
O=C(c1cccc2nc3ccccc3nc12)N1CCOCC1,-3.04%,,"29.1 µM [falling, single point]"
Cc1ccc(CNC(=O)c2ccc(CN3CCOCC3)cc2)cc1,1.93%,,"3.26 µM [rising, single point]"
Cc1[nH]nc2c1C(=O)CC(C)(C)C2,,,"0.13 µM [falling, full curve, poor fit]"
Cn1c(NCc2c[nH]c3ccccc23)nc2ccccc21,74.9%,"25.9 µM [rising, single point]","18.4 µM [rising, partial curve]"
Cc1ccc(C)c2[nH]c(=O)c(CCNC(=O)c3ccc(S(=O)(=O)N(C)C)cc3)cc12,59.2%,"1.64 µM [rising, full curve]","1.84 µM [rising, full curve]"
O=C(Nc1ccc2c(c1)OCCO2)C1CCN(S(=O)(=O)c2cccs2)CC1,2.64%,,
Cc1cc(NC(=O)CSc2nnc(NC(=O)C3CC(=O)N(c4ccccc4C)C3)s2)no1 (centres undefined),-36.7%,"0.116 µM [falling, full curve]","29.1 µM [falling, single point]"
O=C(CN(C(=O)CCC(=O)Nc1nccs1)c1ccc(F)cc1)NCCc1ccccc1,38.7%,"11.6 µM [rising, partial curve, poor fit]",
CC(NC(=O)c1ccco1)C(=O)O (centres undefined),-3.93%,"2.06 µM [falling, single point]","0.0651 µM [rising, full curve, poor fit]"
c1ccc(-c2cn3c(n2)CCC3)cc1,6.58%,,"5.17 µM [falling, full curve]"
CCCCCCNc1nc(-c2ccc(OC)cc2)c(CCC(=O)O)s1,19.1%,,"4.11 µM [rising, partial curve]"
O=C1c2ccccc2C2=Nc3ccccc3SC(c3ccccc3F)C12 (centres undefined),-78.7%,"29.1 µM [falling, partial curve, poor fit]","0.92 µM [falling, full curve]"
CCOC(=O)CN1C(=O)c2ccccc2C1=O,19.5%,,"0.0103 µM [rising, full curve, poor fit]"
COc1ccc(-c2cc(C(=O)OCC(=O)c3c(N)n(C)c(=O)n(C)c3=O)c3ccccc3n2)cc1,37%,"0.82 µM [rising, full curve, poor fit]","29.1 µM [rising, single point]"
CN(C)S(=O)(=O)c1cccc(-c2cn3cc(Cl)ccc3n2)c1,1.84%,"0.461 µM [rising, single point]","14.6 µM [rising, partial curve]"
CC(=O)N[C@@H](C)c1nc2ccccc2n1CCCN1CCN(c2nc(-c3ccc(C)cc3)cs2)CC1,-32.3%,"0.517 µM [falling, partial curve, poor fit]",
O=C1CCCc2nc(N3CCN(Cc4ccccc4)CC3)ncc21,44.6%,"5.8 µM [rising, full curve]","5.17 µM [rising, single point]"
O=C1NC(c2ccc(Cl)cc2)=COc2ccccc21,52.7%,"3.66 µM [rising, full curve, poor fit]","4.61 µM [rising, full curve, poor fit]"

SMILES,cell number change,AC50 [1],AC50 [2]
COc1ccc(C(c2nnnn2Cc2ccc(F)cc2)N2CCN(c3ccc(OC)cc3)CC2)cc1 (centres undefined),2.65%,,"2.06 µM [rising, full curve, poor fit]"
COCC1CCCCN1C(=O)c1ccc(OC2CCN(Cc3ccccn3)CC2)cc1 (centres undefined),-21.8%,,"7.31 µM [rising, partial curve]"
S=c1[nH]nc(-c2cccnc2)n1/N=C/c1ccc(Br)s1,-12.2%,,
Cn1c(SCc2ccccc2F)nc2cccnc21,60.1%,,
C=CCn1cccc(C(=O)Nc2cc(OC)c(OC)c(OC)c2)c1=O,1.69%,"6.51 µM [rising, partial curve, poor fit]","6.51 µM [rising, partial curve]"
Cc1nc2cccc(C)n2c(=O)c1Cl,29.2%,"0.206 µM [rising, full curve, poor fit]","1.3 µM [rising, partial curve]"
CCCCN(CC)CCCNC(=O)c1ccc(CS(=O)(=O)c2c(Cl)cccc2Cl)o1,23.9%,,"0.103 µM [rising, full curve, poor fit]"
O=C(COC(=O)Cn1[nH]c(=O)c2ccccc2c1=O)NNC(=O)c1ccc(Br)cc1,-18.5%,,
O=C(CCC(=O)c1cccs1)NCc1ccc(F)cc1,-2.32%,,"20.6 µM [falling, partial curve]"
O=C(NCc1ccc2c(c1)CCO2)Nc1ccccc1,-13.9%,"0.116 µM [falling, full curve, poor fit]",
O=C(N[C@@H](Cc1ccccc1)C(=O)N[C@@H](Cc1ccccc1)C(=O)O)OCc1ccccc1 (Cbz-Phe-Phe-OH),20.1%,,"9.2 µM [falling, partial curve, poor fit]"
COc1cccc(C2c3c(oc4ccccc4c3=O)C(=O)N2c2ccccn2)c1 (centres undefined),23%,,
Cc1cccc(C(=O)N2CCCC(Nc3ccc(C)c(C)c3)C2)n1 (centres undefined),-0.867%,,"10.3 µM [rising, partial curve, poor fit]"
CCOC(=O)c1cccc(NC(=O)CCc2ccccc2)c1,,"0.00461 µM [rising, full curve, poor fit]",
COc1cccc(NC(=O)COC(=O)CCC(=O)c2cccs2)c1,-11.4%,,"0.092 µM [falling, full curve, poor fit]"
O=C(COC(=O)C1CC1)Nc1ncc(Cl)cc1Cl,41%,"16.4 µM [rising, single point]",
CCN(CC)S(=O)(=O)c1cccc(C(=O)Nc2nc3cc4c(cc3s2)OCCO4)c1,17%,"3.66 µM [rising, single point]","1.84 µM [rising, full curve, poor fit]"
CCn1cc(S(=O)(=O)NC2CCCCC2)cn1,40.5%,"23.1 µM [rising, partial curve]",
COC(=O)c1[nH]c2cc(OC)ccc2c1NC(=O)CN1CCC(C(N)=O)CC1,39.8%,"2.59 µM [rising, single point]",
CCc1cc2cc(C)cc(C)c2nc1SCC(=O)N1CCN(C(=O)c2ccco2)CC1,-3.41%,,"4.11 µM [rising, full curve]"
CCc1ccc(S(=O)(=O)NCCc2csc(-c3cccnc3)n2)s1,45.2%,,
O=C(O)c1cccc(S(=O)(=O)Nc2cc(Cl)ccc2Cl)c1,-21.3%,,"20.6 µM [falling, single point]"
Nc1nonc1-n1nnc(C(=O)N/N=C/c2ccccc2F)c1CN1CCc2ccccc21,-1.91%,,"29.1 µM [rising, single point]"
O=C(NNC(=O)C12CC3CC(CC(C3)C1)C2)c1ccccc1[N+](=O)[O-],-4.2%,,"2.06 µM [rising, full curve, poor fit]"
CCOc1ccc(CN(C)C(=O)CCc2ccc(S(=O)(=O)N3CCCCCC3)cc2)cc1,42.3%,"18.4 µM [rising, single point]","14.6 µM [rising, partial curve, poor fit]"
O=C(N/N=C/c1cccnc1)c1cc2c(ccc3ccccc32)o1,95.9%,"5.8 µM [rising, partial curve, poor fit]","0.731 µM [rising, full curve]"
CCc1cc2c(SCC(=O)Nc3cc(C)on3)ncnc2s1,113%,"29.1 µM [rising, partial curve, poor fit]","29.1 µM [rising, partial curve]"
